Results are given in words; binding and its absence hold for the method and conditions named. For part of these data: In cells and extracts the contact can be indirect. Some results given as binding are weak or reduced against the parent protein; the word gives no strength. For part of these data: Sequences can lack the tags named with a protein.
Assays:
[1] = biological target: T1, Gal4DBD fusion of the NR-box peptide of Sirt1 of N. furzeri (N. furzeri); test: two-hybrid; mammalian two-hybrid in HEK293 cells: Gal4DBD fusions with VP16-ERα or VP16-ERβ and the reporter pFR-Luc (5x Gal4-luc); DMSO or 100 nM E2; Gal4DBD (pM) as reference
T1 sequence: RAILRDLLPET

Sequences of proteins named here, by UniProt entry; tags and fusion partners are left off. A change or cut given only in a name is not applied to a line headed by its entry. A line that says so, or that is headed by a name, gives the form on record, which may keep a tag or linker. Residues count along the entry.
UniProt Q96EB6: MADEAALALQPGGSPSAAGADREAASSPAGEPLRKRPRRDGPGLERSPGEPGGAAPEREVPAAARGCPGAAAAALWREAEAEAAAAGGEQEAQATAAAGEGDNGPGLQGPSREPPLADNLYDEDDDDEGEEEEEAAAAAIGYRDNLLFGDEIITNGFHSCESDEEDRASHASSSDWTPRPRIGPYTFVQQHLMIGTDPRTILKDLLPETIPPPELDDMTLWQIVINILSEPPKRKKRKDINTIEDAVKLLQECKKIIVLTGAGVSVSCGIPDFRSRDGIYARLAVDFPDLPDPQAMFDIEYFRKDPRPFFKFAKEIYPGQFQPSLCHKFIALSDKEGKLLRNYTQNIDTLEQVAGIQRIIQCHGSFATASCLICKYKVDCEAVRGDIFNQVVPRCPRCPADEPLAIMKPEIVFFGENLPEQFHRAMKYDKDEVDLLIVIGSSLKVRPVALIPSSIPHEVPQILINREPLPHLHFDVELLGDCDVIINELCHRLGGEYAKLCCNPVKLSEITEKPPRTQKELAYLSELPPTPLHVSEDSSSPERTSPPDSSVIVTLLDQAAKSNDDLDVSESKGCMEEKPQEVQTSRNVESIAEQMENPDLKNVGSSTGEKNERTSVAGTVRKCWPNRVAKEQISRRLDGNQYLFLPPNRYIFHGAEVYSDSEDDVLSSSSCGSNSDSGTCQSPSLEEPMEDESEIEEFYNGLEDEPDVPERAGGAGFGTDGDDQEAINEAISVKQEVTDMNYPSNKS
GST-SIRT1 (Wt): residues 82-747 of Q96EB6
GST-STACs-AD wild-type: residues 82-243 of Q96EB6
GST-SIRT1ΔNRB (Q96EB6, form named): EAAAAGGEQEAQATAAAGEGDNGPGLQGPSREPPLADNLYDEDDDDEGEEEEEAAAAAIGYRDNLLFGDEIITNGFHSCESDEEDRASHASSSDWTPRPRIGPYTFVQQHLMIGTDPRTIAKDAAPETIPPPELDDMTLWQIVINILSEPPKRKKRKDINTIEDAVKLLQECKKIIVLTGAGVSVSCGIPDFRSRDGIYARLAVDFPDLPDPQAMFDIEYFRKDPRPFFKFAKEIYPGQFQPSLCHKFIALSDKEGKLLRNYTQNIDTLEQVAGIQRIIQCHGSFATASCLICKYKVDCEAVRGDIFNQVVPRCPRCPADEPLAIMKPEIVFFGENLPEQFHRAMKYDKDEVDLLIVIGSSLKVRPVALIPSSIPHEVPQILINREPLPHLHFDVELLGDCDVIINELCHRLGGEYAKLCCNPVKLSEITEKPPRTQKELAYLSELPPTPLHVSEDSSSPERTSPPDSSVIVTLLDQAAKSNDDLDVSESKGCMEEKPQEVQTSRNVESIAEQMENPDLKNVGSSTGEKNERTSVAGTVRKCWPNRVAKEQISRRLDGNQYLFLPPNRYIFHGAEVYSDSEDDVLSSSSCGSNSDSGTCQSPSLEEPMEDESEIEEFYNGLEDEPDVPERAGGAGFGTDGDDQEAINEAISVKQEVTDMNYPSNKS
GST-STACs-ADΔNRB (Q96EB6, form named): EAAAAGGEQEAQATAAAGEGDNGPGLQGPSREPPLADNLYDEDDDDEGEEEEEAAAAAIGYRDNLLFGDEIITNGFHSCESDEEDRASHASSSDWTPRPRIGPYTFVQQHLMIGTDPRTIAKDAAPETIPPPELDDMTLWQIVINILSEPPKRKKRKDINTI
UniProt P06700: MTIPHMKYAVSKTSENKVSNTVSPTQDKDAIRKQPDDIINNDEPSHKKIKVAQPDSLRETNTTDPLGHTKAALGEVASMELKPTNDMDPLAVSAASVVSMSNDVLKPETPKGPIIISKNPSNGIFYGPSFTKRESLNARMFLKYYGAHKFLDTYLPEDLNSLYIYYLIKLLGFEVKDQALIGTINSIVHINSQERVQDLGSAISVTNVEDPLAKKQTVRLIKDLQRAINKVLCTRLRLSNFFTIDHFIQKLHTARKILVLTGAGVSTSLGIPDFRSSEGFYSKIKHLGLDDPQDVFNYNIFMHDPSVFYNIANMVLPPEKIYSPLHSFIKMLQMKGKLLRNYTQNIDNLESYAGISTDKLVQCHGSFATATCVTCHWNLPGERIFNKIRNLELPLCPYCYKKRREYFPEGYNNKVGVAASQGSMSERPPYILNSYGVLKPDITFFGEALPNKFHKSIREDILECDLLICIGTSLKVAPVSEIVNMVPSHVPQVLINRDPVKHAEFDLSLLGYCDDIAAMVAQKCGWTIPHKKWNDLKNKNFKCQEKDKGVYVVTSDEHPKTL
UniProt P03372: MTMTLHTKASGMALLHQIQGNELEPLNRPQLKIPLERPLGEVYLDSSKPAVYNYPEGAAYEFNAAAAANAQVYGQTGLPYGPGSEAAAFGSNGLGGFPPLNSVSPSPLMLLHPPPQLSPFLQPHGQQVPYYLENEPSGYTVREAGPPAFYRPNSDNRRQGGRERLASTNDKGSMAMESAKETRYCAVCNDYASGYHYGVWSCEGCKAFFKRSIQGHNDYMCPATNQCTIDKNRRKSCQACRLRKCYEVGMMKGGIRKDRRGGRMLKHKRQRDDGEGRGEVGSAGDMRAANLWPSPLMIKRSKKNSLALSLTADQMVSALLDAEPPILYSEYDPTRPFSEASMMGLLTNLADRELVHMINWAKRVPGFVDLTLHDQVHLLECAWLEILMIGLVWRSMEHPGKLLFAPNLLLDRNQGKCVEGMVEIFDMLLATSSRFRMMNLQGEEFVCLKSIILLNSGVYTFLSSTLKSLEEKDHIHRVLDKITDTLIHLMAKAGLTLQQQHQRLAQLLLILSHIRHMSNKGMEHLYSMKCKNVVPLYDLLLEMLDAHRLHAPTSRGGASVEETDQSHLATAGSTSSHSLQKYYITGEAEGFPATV
UniProt Q92731: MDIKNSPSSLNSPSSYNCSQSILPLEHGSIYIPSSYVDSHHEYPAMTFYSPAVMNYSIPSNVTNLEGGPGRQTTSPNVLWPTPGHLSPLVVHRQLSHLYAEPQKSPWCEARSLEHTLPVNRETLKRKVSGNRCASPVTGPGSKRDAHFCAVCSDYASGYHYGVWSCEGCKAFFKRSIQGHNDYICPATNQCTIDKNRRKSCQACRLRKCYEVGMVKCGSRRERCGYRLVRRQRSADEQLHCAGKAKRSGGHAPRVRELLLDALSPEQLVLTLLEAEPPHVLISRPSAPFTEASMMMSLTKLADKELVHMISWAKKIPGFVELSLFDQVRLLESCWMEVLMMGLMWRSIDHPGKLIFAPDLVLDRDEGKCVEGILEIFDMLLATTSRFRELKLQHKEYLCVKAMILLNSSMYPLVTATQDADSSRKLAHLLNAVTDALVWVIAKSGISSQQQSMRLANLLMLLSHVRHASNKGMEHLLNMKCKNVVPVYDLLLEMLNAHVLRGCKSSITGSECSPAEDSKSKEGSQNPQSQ

[2] = biological target: T2, Gal4DBD fusion of the Sir-2.1 NR-box peptide (C. elegans); test: as above
T2 sequence: FAILSDLLERA

[3] = biological target: T3, Gal4DBD fusion of the Sir2 NR-box peptide (S. cerevisiae); test: as above
T3 sequence: IYYLIKLLGFE

[4] = biological target: T4, Gal4DBD fusion of the dSir2 NR-box peptide (Drosophila (D. melanogaster)); test: as above
T4 sequence: WDYLAHLLNEP

[5] = biological target: T5, Gal4DBD fusion peptide of the wild-type SIRT1 NR-box (human); test: as above
T5 sequence: RTILKDLLPET

Gal4DBD-PGC-1α = biological target: T6, Gal4DBD-PGC-1α (UniProt O70343); test: as above
T6 sequence: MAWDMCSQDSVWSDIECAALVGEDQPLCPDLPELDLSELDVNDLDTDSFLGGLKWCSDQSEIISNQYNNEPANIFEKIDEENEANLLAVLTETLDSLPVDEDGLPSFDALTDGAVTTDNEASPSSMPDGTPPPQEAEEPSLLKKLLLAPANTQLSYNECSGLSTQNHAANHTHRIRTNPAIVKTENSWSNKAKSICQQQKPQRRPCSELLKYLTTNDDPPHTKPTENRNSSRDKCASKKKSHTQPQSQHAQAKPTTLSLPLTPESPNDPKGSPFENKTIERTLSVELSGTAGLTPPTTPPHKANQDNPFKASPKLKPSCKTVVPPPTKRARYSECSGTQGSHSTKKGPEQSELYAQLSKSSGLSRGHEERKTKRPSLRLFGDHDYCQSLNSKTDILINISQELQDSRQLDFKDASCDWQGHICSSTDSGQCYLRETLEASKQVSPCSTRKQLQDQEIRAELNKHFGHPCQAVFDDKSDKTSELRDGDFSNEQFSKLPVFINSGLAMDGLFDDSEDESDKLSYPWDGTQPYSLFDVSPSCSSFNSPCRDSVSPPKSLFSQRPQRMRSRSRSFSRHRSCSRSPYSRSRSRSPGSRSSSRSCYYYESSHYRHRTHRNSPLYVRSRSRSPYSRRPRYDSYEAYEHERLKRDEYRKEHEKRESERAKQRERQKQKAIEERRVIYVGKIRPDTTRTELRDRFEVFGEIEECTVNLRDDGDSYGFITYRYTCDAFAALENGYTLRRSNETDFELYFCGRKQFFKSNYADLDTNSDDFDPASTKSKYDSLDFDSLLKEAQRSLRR

GST-SIRT1 (Wt) (human) [6] = biological target: GST-SIRT1 (Wt) (human) (UniProt Q96EB6); test: pull-down; GST or GST fusions immobilised on glutathione sepharose beads; 5 µl 35S-labelled in vitro translated ERα or ERβ; 20 mM HEPES pH 7.5, 150 mM NaCl, 0.1 mM EDTA, 10% glycerol, 0.05% NP-40; 2 h at 4°C; with DMSO or 1 µM E2; PAGE and autoradiography; only the target purified
GST-SIRT1ΔNRB (human) = GST-SIRT1ΔNRB (human) (UniProt Q96EB6); test: as above
[7] = biological target: GST-STACs-AD wild-type (human) (UniProt Q96EB6); test: as above
GST-STACs-ADΔNRB (human) = GST-STACs-ADΔNRB (human) (UniProt Q96EB6); test: as above
GST-Sir-2.1 (C. elegans) [8] = biological target: T7, GST-Sir-2.1 (C. elegans) (UniProt Q21921); test: as above
T7 sequence: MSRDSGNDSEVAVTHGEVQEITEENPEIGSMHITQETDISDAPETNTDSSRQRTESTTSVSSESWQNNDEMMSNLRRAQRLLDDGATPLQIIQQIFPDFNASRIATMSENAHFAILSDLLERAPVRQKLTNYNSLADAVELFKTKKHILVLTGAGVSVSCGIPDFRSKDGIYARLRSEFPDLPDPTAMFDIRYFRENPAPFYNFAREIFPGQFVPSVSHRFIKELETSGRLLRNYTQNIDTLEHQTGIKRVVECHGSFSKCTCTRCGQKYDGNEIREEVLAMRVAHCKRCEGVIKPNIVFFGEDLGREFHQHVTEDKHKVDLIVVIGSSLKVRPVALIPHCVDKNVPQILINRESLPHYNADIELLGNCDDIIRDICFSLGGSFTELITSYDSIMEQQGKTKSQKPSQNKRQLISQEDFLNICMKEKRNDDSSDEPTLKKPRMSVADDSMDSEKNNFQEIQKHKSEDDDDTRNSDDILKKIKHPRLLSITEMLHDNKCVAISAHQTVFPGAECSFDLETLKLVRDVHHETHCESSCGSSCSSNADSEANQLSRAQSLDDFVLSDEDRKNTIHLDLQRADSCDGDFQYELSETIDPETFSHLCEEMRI

GST-Sir2 (S. cerevisiae) [9] = biological target: GST-Sir2 (S. cerevisiae) (UniProt P06700); test: as above
GST-SIRT1 (Wt) (human) [10] = biological target: GST-SIRT1 (Wt) (human) (UniProt Q96EB6); test: pull-down; GST or GST fusions of Sir-2.1, Sir2 and SIRT1 (Wt only) incubated with in vitro expressed DAF-12 with DMSO or 1 µM Δ7-dafachronic acid; PAGE and autoradiography; only the target purified
GST-Sir-2.1 (C. elegans) [11] = biological target: T7, GST-Sir-2.1 (C. elegans); test: as above
GST-Sir2 (S. cerevisiae) [12] = biological target: GST-Sir2 (S. cerevisiae) (UniProt P06700); test: as above

In the case of “VP16-ERα (from UniProt P03372 1-595) (receptor)”, the binding [1] is reported as “binds”, the binding [2] is reported as “binds” and the binding [3] is reported as “binds”. For the same molecule, the binding [4] was “binds”, the binding [5] was “binds” and the binding (Gal4DBD-PGC-1α) was “binds”.

For “VP16-ERβ (from UniProt Q92731 1-530) (receptor)”, the binding [1] was “binds”, the binding [2] was “binds” and the binding [3] was “binds”. For the same molecule, the binding [4] was “binds”, the binding [5] was “binds” and the binding (Gal4DBD-PGC-1α) was “binds”.

For “in vitro translated human ERα (from UniProt P03372 1-595) (receptor)”, the binding (GST-SIRT1 (Wt) (human) [6]) was “binds”, the binding (GST-SIRT1ΔNRB (human)) was “binds” and the binding [7] was “binds”. For the same molecule, the binding (GST-STACs-ADΔNRB (human)) was “binds weakly”, the binding (GST-Sir-2.1 (C. elegans) [8]) was “binds” and the binding (GST-Sir2 (S. cerevisiae) [9]) was “binds”.

“in vitro translated human ERβ (from UniProt Q92731 1-530) (receptor)” was tested, and the binding (GST-SIRT1 (Wt) (human) [6]) was “binds”, the binding (GST-SIRT1ΔNRB (human)) was “binds” and the binding [7] was “binds”. The binding (GST-STACs-ADΔNRB (human)) was “binds weakly”, the binding (GST-Sir-2.1 (C. elegans) [8]) was “binds” and the binding (GST-Sir2 (S. cerevisiae) [9]) was “binds”.

B1: in vitro expressed DAF-12 (receptor, UniProt G5EFF5 1-753)
chain: MGTNGGVIAEQSMEIETNENPDKVEEPVVRRKRVTRRRHRRIHSKNNCLTPPNSDDDPQMSTPDDPVIHSPPSIGAAPGMNGYHGSGVKLEESSGACGSPDDGLLDSSEESRRRQKTCRVCGDHATGYNFNVITCESCKAFFRRNALRPKEFKCPYSEDCEINSVSRRFCQKCRLRKCFTVGMKKEWILNEEQLRRRKNSRLNNTGTCNKRSQPGNQQSPQGPNQQPHLSPHHPGVAIYPPQPQRPLTINPMDNQMMHHMQANRPNAMPQLISPPGAQPYPLTSPVGSSASDSPPNRSLTMMHNGEKSPDGYDPNIMAHRAPPPSFNNRPKMDSGQVVLSTEEYKQLLSRIPGAQVPGLMNEEEPINKRAAYNCNGHPMPAETTPPYSAPMSDMSLSRHNSTSSGTEKNHMTHSTVSAIPGNSAQNHFDIASFGMGIVTATGGGDAAEEMYKRMNMFYENCIQSALDSPENQEPKPQEAMIPKEEYMTPTHGFQYQSDPYQVPPAERNINYQLNAAELKALDAVREAFYGMDDPMEQGRQMQSFLKANKTPADIMNIMDVTMRRFVKVAKGVPAFREVSQEGKFSLLKGGMIEMLTVRGVTRYDASTNSFKTPTIKGQNVSVNVDDMFAKLNANAQAQKAKCLEFFGFFDEEIKKNELAVYLVMLAVLFSVRSDPPMNENDVRIVTERHNHFMSLLNRYLESLFGEQARRIFERIPKALGLLNEIARNAGMLFMGTVRSGEAEELPGEFFKIK
modifications: [35S]-methionine labelled
For B1, the binding (GST-SIRT1 (Wt) (human) [10]) was “binds”, the binding (GST-Sir-2.1 (C. elegans) [11]) was “binds” and the binding (GST-Sir2 (S. cerevisiae) [12]) was “binds”.
